Cleaved PARP in drug-treated melanoma cells

Source: doi:10.1371/journal.pone.0140310, primary screening data, rounded.

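Human melanoma cells were exposed to a pair of drugs for 72 h in 1,536-well plates and read by automated microscopy after fixing and staining. The read-out is the fraction of cleaved-PARP-positive nuclei, in % of that fraction in the DMSO control; 200 means twice the control level of this apoptosis marker. Every drug was used at one fixed concentration, the higher of two screened. The file gives one value for each pair and line, without errors, so small differences may be noise. The marker varies much from line to line, for technical or biological reasons.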
Only some of the drugs and lines screened are listed, without regard to their results.

All values are for the listed drug together with nilotinib (1 µM): Cc1cn(-c2cc(NC(=O)c3ccc(C)c(Nc4nccc(-c5cccnc5)n4)c3)cc(C(F)(F)F)c2)cn1

Cn1cc(C2=C(c3cn(C4CCN(Cc5ccccn5)CC4)c4ccccc34)C(=O)NC2=O)c2ccccc21 at 4 µM gave WM115: 107; A2058: 188.
C[As](C)SC[C@H](NC(=O)CC[C@H](N)C(=O)O)C(=O)NCC(=O)O at 2 µM gave WM115: 40.8; A2058: 78.5.
O=c1cc(-c2cccc3c2Sc2ccccc2S3)oc(N2CCOCC2)c1 at 5 µM gave WM115: 64.9; A2058: 156.
NC(=O)c1ccc(N(C(N)=O)c2c(F)cccc2F)nc1-c1ccc(F)cc1F at 2 µM gave WM115: 125; A2058: 103.
CCN(CC)CCNC(=O)c1c(C)[nH]c(/C=C2\C(=O)Nc3ccc(F)cc32)c1C at 2 µM gave WM115: 117; A2058: 333.
O=C(Nc1cccc(Cl)c1)Nc1ncc(CCNc2ncnc3ccsc23)s1 at 0.004 µM gave WM115: 830; A2058: 133.
O=C(/C=C/c1cccnc1)NCCCCC1CCN(C(=O)c2ccccc2)CC1 at 0.05 µM gave WM115: 42.5; A2058: 106.
Cn1cnc2c(F)c(Nc3ccc(Br)cc3Cl)c(C(=O)NOCCO)cc21 at 0.075 µM gave WM115: 210; A2058: 91.4.
COc1cc2ncnc(Nc3ccc(Oc4ccccc4)cc3)c2cc1OC at 10 µM gave WM115: 109; A2058: 92.9.
CN(C)S(=O)(=O)c1ccc2c(c1)/C(=C/c1cc3c([nH]1)CCCC3)C(=O)N2 at 2 µM gave WM115: 232; A2058: 141.
O=C(O)[C@@H]1[O][Sb](=[O])([O][Sb]2(=[O])[O][C@H]([C@H](O)CO)[C@H](O)[C@H](C(=O)O)[O]2)[O][C@H]([C@H](O)CO)[C@@H]1O (some centres unmarked) at 10 µM gave WM115: 106; A2058: 64.6.
Nc1ccn([C@@H]2O[C@H](CO)[C@@H](O)C2(F)F)c(=O)n1 at 0.002 µM gave WM115: 244; A2058: 96.8.
NCC(=O)Nc1ccc(-n2nc(C(F)(F)F)cc2-c2ccc3c(ccc4ccccc43)c2)cc1 at 5 µM gave WM115: 390; A2058: 135.
C[C@@H](N)c1ccc(C(=O)Nc2ccnc3[nH]ccc23)cc1 at 2 µM gave WM115: 531; A2058: 254.
CNC(=O)c1cc(Oc2ccc(NC(=O)Nc3ccc(Cl)c(C(F)(F)F)c3)cc2)ccn1 at 2 µM gave WM115: 49.6; A2058: 92.3.
Cc1cc(SCc2sc(-c3ccc(C(F)(F)F)c(F)c3)nc2C)ccc1OCC(=O)O at 10 µM gave WM115: 48.9; A2058: 142.
Cc1cc(Nc2cc(N3CCN(C)CC3)nc(/C=C/c3ccccc3)n2)n[nH]1 at 0.2 µM gave WM115: 139; A2058: 116.
c1cc(-c2cnn3cc(-c4ccc(OCCN5CCCCC5)cc4)cnc23)ccn1 at 2 µM gave WM115: 101; A2058: 143.
CS(=O)(=O)CCNCc1ccc(-c2ccc3ncnc(Nc4ccc(OCc5cccc(F)c5)c(Cl)c4)c3c2)o1 at 4 µM gave WM115: 145; A2058: 185.
N#CC[C@H](C1CCCC1)n1cc(-c2ncnc3[nH]ccc23)cn1 at 5 µM gave WM115: 145; A2058: 95.6.
Oc1nc(-c2ccc(C(F)(F)F)cc2)nc2c1CSCC2 at 10 µM gave WM115: 104; A2058: 119.
O=C(Nc1ccccc1)c1cc([N+](=O)[O-])ccc1Cl at 10 µM gave WM115: 77.5; A2058: 70.5.
COCC[n+]1c2c(n(Cc3cnccn3)c1C)C(=O)c1ccccc1C2=O at 0.002 µM gave WM115: 502; A2058: 868.
O=C(O)C(=O)Nc1sc2c(c1C(=O)O)CCNC2 at 8.33 µM gave WM115: 127; A2058: 85.8.
COc1cc2c(Oc3ccc4[nH]c(C)cc4c3F)ncnc2cc1OCCCN1CCCC1 at 2 µM gave WM115: 89.6; A2058: 55.0.
CN1CCN(c2ccc3nc(-c4c(N)c5c(F)cccc5[nH]c4=O)[nH]c3c2)CC1 at 0.5 µM gave WM115: 165; A2058: 229.